Test [1] deals with Nucleoid occlusion protein Noc (Bacillus subtilis), full-length (Bacillus subtilis) (UniProt P37524). Briefly: SEC; size-exclusion chromatography of the purified protein in solution (Supplementary Fig S3); conditions not shown; both purified. On the technique in general: In gel filtration, larger molecules generally elute earlier.
Test [2] concerns the target NocNΔ10, N-terminally truncated Noc variant lacking the first 10 amino acids (Bacillus subtilis) (UniProt P37524). Described as above.

Results are given in words; binding and its absence hold for the method and conditions named. Some binding calls cover weakened binding; strength is not graded here.

B1: Nucleoid occlusion protein Noc (Bacillus subtilis), full-length (protein, UniProt P37524 1-283)
chain: MKHSFSRFFGLGEKEQEPEIAEHDTNKEEILEIPVNAIVPNRFQPRTIFSDEKIKELAMTIHTHGIIQPIVVRHTEEEGQYELIAGERRWRAVQSLEWEKIPAIIKDFSDTETASVALIENLQREELSSIEEAHAYARLLELHDLTQEALAQRLGKGQSTIANKLRLLKLPQPVQEAIMEKKITERHARALIPLKQPELQVTLLTEIIEKSLNVKQTEDRVVKMLEQGQRKPKPRRKAFSRDTRIAMNTIRQSLSMVEDSGVKLNTEEEEFEEYIQLTIRIPK
With B1, the binding entry in test [1] is reported as “binds”.

B2: NocNΔ10, N-terminally truncated Noc variant lacking the first 10 amino acids (domain or fragment, UniProt P37524 11-283)
chain: LGEKEQEPEIAEHDTNKEEILEIPVNAIVPNRFQPRTIFSDEKIKELAMTIHTHGIIQPIVVRHTEEEGQYELIAGERRWRAVQSLEWEKIPAIIKDFSDTETASVALIENLQREELSSIEEAHAYARLLELHDLTQEALAQRLGKGQSTIANKLRLLKLPQPVQEAIMEKKITERHARALIPLKQPELQVTLLTEIIEKSLNVKQTEDRVVKMLEQGQRKPKPRRKAFSRDTRIAMNTIRQSLSMVEDSGVKLNTEEEEFEEYIQLTIRIPK
Take B2: the binding entry in test [2] is listed as “binds”.
